The subject of the test is PC-3 cells. In words: Cell growth of PC-3 cells (cell counting). It counts as cell-based, human. The settings on record: three days, wortmannin 10 or 100 nM, PD98059 1 or 10 μM, staurosporine 1 or 10 nM. Here is the method: The PC-3 and DU-145 cells (the cell number of 1×10^5/in 1 ml of a culture fluid per hole using a 24-hole plate) were cultured in a DMEM culture fluid (containing 10% of FBS, 1% of P/S, and 1% of fungizone) containing the DHMBA (1 and 10 μM) under 5% of CO2, at 37° C., for one, two, three, four, and six days. […] The cell number in the cell suspension was counted by the method described in the item of “Measurement of Cell Number.”
After the culture of the cells, 0.1 ml of 0.05% trypsin-EDTA solution obtained by dissolving the cells adhering to the bottom surface of the culture dish in PBS (Thermo Fisher Scientific, Waltham, MA, USA) not containing Ca^2+/Mg^2+ was added, incubation was performed at 37° C. for two minutes to release the adhering cells, and 0.9 ml of the DMEM culture fluid containing 10% of FBS and 1% of P/S was added to stop the reaction. The visible cells were counted by the Olympus MTV-3 microscope using a hemocytometer (Sigma-Aldrich). […]
In FIGS. 1(D) and 1(E), the PC-3 cells (1×10^5 cells/per well of a 24-well plate) were cultured under 5% of CO2, at 37° C., for three (FIG. 1D) and six (FIG. 1E) days in a DMEM culture fluid (containing 10% of FBS, 1% of P/S, and 1% of fungizone) containing the DHMBA (0.01, 0.1, 1, 10, 100, and 1000 μM). After the culture, the cells adhered to the bottom surface of the dish were removed and counted. […]

For the compound `CN[C@@H]1C[C@H]2O[C@@](C)([C@@H]1OC)n1c3ccccc3c3c4c(c5c6ccccc6n2c5c31)C(=O)NC4` [staurosporine, reference compound], the “cell growth in the presence of intracellular signaling inhibitor alone” value is recorded as “inhibited”.

The values are drawn from patent US20240350430A1, “GROWTH INHIBITOR OF METASTATIC HUMAN PROSTATE CANCER CELLS” (Watanabe Oyster Laboratory Co., Ltd., priority 2021, published 2024).
